Taken from: PubChem BioAssay AID743121 (NCATS, 2013)

- Screen: 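Partners whose loss is lethal together with topoisomerase I blockade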 (primary screen)
- Cells: MDA-MB-231 cells, a human breast cancer line
- Knock-down reagent: single siRNA against human genes, 20 nM siRNA (0.8 pmol per well)
- Duration: 120 h (drug added 48 h after transfection, read 72 h later)
- Conditions: camptothecin 20 nM (about EC30) for 72 h; vehicle 0.1% DMSO in parallel plates
- Read-out: 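Cell viability by ATP luminescence (CellTiter-Glo) as % of non-targeting siRNA wells, and the log2 ratio of viability without drug over viability with camptothecin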
- Direction: log2 vehicle/camptothecin viability: higher = stronger sensitisation to camptothecin; viability with camptothecin: higher = more viable cells
- Hit rule: 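Each gene scored by redundant siRNA activity (RSA) over its individual siRNA ratios; a gene is called active at p < 0.001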
Here is an unselected part of about 26,000 reagents tested. Over the whole deposit, 167 (0.63%) got an active call. 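Calls are per gene from RSA p-values that are not deposited; an individual active-marked siRNA can sensitise only weakly.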 Reagents against one gene are numbered here. Further read-outs or replicates are left out here.

gene symbol | reagent no. | log2 vehicle/camptothecin viability | viability with camptothecin (% of control) | Outcome
ADAMTS14 (ADAM metallopeptidase with thrombospondin type 1 motif 14) | 1 | -0.123 | 67.5 | inactive
ADAMTS14 (ADAM metallopeptidase with thrombospondin type 1 motif 14) | 2 | -0.0141 | 100 | inactive
ADAMTS14 (ADAM metallopeptidase with thrombospondin type 1 motif 14) | 3 | -0.375 | 84.2 | inactive
RLBP1 (retinaldehyde binding protein 1) | 1 | 0.0455 | 76.8 | inactive
RLBP1 (retinaldehyde binding protein 1) | 2 | -0.249 | 76.8 | inactive
RLBP1 (retinaldehyde binding protein 1) | 3 | 0.0861 | 31.3 | inactive
RNF157 (ring finger protein 157) | 1 | 0.478 | 73.5 | inactive
RNF157 (ring finger protein 157) | 2 | -0.0813 | 88.3 | inactive
RNF157 (ring finger protein 157) | 3 | 0.0409 | 93.9 | inactive
RNF157 (ring finger protein 157) | 4 | -0.222 | 57.3 | inactive
ATP1A4 (ATPase Na+/K+ transporting subunit alpha 4) | 1 | -0.223 | 94.7 | inactive
ATP1A4 (ATPase Na+/K+ transporting subunit alpha 4) | 2 | -0.224 | 107 | inactive
ATP1A4 (ATPase Na+/K+ transporting subunit alpha 4) | 3 | -0.584 | 68.4 | inactive
ATP1A4 (ATPase Na+/K+ transporting subunit alpha 4) | 4 | -0.157 | 118 | inactive
LAMB2 (laminin subunit beta 2) | 1 | -0.216 | 78.8 | inactive
LAMB2 (laminin subunit beta 2) | 2 | -0.0454 | 90.3 | inactive
LAMB2 (laminin subunit beta 2) | 3 | -0.237 | 66.5 | inactive
C3orf38 (chromosome 3 open reading frame 38) | 1 | -0.411 | 71.6 | inactive
C3orf38 (chromosome 3 open reading frame 38) | 2 | -0.126 | 63 | inactive
C3orf38 (chromosome 3 open reading frame 38) | 3 | -0.194 | 94.8 | inactive
C3orf38 (chromosome 3 open reading frame 38) | 4 | -0.0757 | 37.9 | inactive
RHBDF1 (rhomboid 5 homolog 1) | 1 | -0.349 | 57.7 | inactive
RHBDF1 (rhomboid 5 homolog 1) | 2 | 0.972 | 8.19 | inactive
RHBDF1 (rhomboid 5 homolog 1) | 3 | 0.291 | 32.7 | inactive

7 of these entries in another layout.
{"gene symbol": "C3orf38 (chromosome 3 open reading frame 38)", "reagent no.": 1, "log2 vehicle/camptothecin viability": -0.411, "viability with camptothecin (% of control)": 71.6, "Outcome": "inactive"}
{"gene symbol": "C3orf38 (chromosome 3 open reading frame 38)", "reagent no.": 2, "log2 vehicle/camptothecin viability": -0.126, "viability with camptothecin (% of control)": 63, "Outcome": "inactive"}
{"gene symbol": "C3orf38 (chromosome 3 open reading frame 38)", "reagent no.": 3, "log2 vehicle/camptothecin viability": -0.194, "viability with camptothecin (% of control)": 94.8, "Outcome": "inactive"}
{"gene symbol": "C3orf38 (chromosome 3 open reading frame 38)", "reagent no.": 4, "log2 vehicle/camptothecin viability": -0.0757, "viability with camptothecin (% of control)": 37.9, "Outcome": "inactive"}
{"gene symbol": "RHBDF1 (rhomboid 5 homolog 1)", "reagent no.": 1, "log2 vehicle/camptothecin viability": -0.349, "viability with camptothecin (% of control)": 57.7, "Outcome": "inactive"}
{"gene symbol": "RHBDF1 (rhomboid 5 homolog 1)", "reagent no.": 2, "log2 vehicle/camptothecin viability": 0.972, "viability with camptothecin (% of control)": 8.19, "Outcome": "inactive"}
{"gene symbol": "RHBDF1 (rhomboid 5 homolog 1)", "reagent no.": 3, "log2 vehicle/camptothecin viability": 0.291, "viability with camptothecin (% of control)": 32.7, "Outcome": "inactive"}

Continued.
gene symbol | reagent no. | log2 vehicle/camptothecin viability | viability with camptothecin (% of control) | Outcome
NME2 (NME/NM23 nucleoside diphosphate kinase 2) | 1 | -0.107 | 69.4 | inactive
NME2 (NME/NM23 nucleoside diphosphate kinase 2) | 2 | 0.0285 | 77.9 | inactive
NME2 (NME/NM23 nucleoside diphosphate kinase 2) | 3 | -0.383 | 58.8 | inactive
NME2 (NME/NM23 nucleoside diphosphate kinase 2) | 4 | -0.233 | 69.8 | inactive
NME2 (NME/NM23 nucleoside diphosphate kinase 2) | 5 | -0.272 | 62.4 | inactive
NME2 (NME/NM23 nucleoside diphosphate kinase 2) | 6 | -0.044 | 57.2 | inactive
NME2 (NME/NM23 nucleoside diphosphate kinase 2) | 7 | -0.233 | 51.6 | inactive
SEZ6L2 (seizure related 6 homolog like 2) | 1 | 0.223 | 42.7 | inactive
SEZ6L2 (seizure related 6 homolog like 2) | 2 | -0.267 | 89.9 | inactive
SEZ6L2 (seizure related 6 homolog like 2) | 3 | -0.0927 | 82.9 | inactive
IL12B (interleukin 12B) | 1 | -0.253 | 82.3 | inactive
IL12B (interleukin 12B) | 2 | -0.132 | 76.4 | inactive
IL12B (interleukin 12B) | 3 | -0.312 | 69.3 | inactive
IL12B (interleukin 12B) | 4 | -0.327 | 18.6 | inactive
PTTG2 (pituitary tumor-transforming 2) | 1 | 0.567 | 11.3 | inactive
PTTG2 (pituitary tumor-transforming 2) | 2 | -0.583 | 86.1 | inactive
PTTG2 (pituitary tumor-transforming 2) | 3 | -0.286 | 63.9 | inactive
PTTG2 (pituitary tumor-transforming 2) | 4 | 0.00111 | 80 | inactive
OR8G2P (olfactory receptor family 8 subfamily G member 2 pseudogene) | 1 | -0.275 | 122 | inactive
OR8G2P (olfactory receptor family 8 subfamily G member 2 pseudogene) | 2 | 0.237 | 69.1 | inactive
OR8G2P (olfactory receptor family 8 subfamily G member 2 pseudogene) | 3 | -0.308 | 37.1 | inactive
OR8G2P (olfactory receptor family 8 subfamily G member 2 pseudogene) | 4 | -0.133 | 105 | inactive
